Test results as given in the supplement of paper PMC4604168 (melanoma cell lines).
The list shows a part of the results. Many values rest on one well or one pass, so single values are uncertain.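 The apoptosis fraction was the count of cleaved-PARP antibody-stained nuclei relative to all DNA-stained nuclei, imaged in 1,536-well plates. Screening doses were set so most cells survived, and baseline and induced cleaved-PARP levels vary greatly across cell lines.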

Test system: CBRC034 (line from a melanoma biopsy)
Experiment: cleaved PARP positive nuclei fraction relative to DMSO control; melanoma cells; higher = more apoptosis
Conditions: library dose: low library concentration; 72 h

SMILES	cleaved PARP positive nuclei fraction
CCc1ccc(CCOc2ccc(CC3SC(=O)NC3=O)cc2)nc1 (stereo not given) [pioglitazone] + Cc1cc([N+](=O)[O-])ccc1NS(=O)(=O)c1cc(Cl)ccc1Cl [FH535] (first compound 2 µM, partner dose 1 µM)	362%
CCN(CC)CCCCNc1ncc2cc(-c3cc(OC)cc(OC)c3)c(NC(=O)NC(C)(C)C)nc2n1 + O=c1cc(-c2cccc3c2Sc2ccccc2S3)oc(N2CCOCC2)c1 [KU55933] (first compound 0.1 µM, partner dose 1 µM)	38.6%
COc1ccc(COc2ccc(Cc3cnc(N)nc3N)cc2OC)cc1 + O=C1NC(=O)/C(=C/c2ccc(-c3ccc(F)cc3O)o2)S1 [AS252424] (first compound 1 µM, partner dose 1 µM)	109%
Oc1cc(-c2nc(-c3ccccc3)[nH]c2-c2ccncc2)ccc1Cl + Cn1cc(/C=C2\C(=O)Nc3cccnc32)c2ccccc21 [GW441756] (first compound 0.2 µM, partner dose 0.4 µM)	120%
NCC(=O)Nc1ccc(-n2nc(C(F)(F)F)cc2-c2ccc3c(ccc4ccccc43)c2)cc1 + Oc1cc(-c2nc(-c3ccccc3)[nH]c2-c2ccncc2)ccc1Cl [L779450] (first compound 1 µM, partner dose 0.2 µM)	89.5%
O=S(=O)(c1ccccc1)N(CC(F)(F)F)c1ccc(C(O)(C(F)(F)F)C(F)(F)F)cc1 + CC(C)CCN1c2nc(Nc3cc(F)c(O)c(F)c3)ncc2N(C)C(=O)C1C [BID1870] (first compound 1.4 µM, partner dose 0.2 µM)	73.1%
Cn1cc(/C=C2\C(=O)Nc3cccnc32)c2ccccc21 + CC(C)CCN1c2nc(Nc3cc(F)c(O)c(F)c3)ncc2N(C)C(=O)C1C [BID1870] (first compound 0.4 µM, partner dose 0.2 µM)	47.5%
O=C1NC(=O)/C(=C/c2ccc(-c3ccc(F)cc3O)o2)S1 + COc1cc(N2CCC(N3CCN(C)CC3)CC2)ccc1Nc1ncc(Cl)c(Nc2ccccc2S(=O)(=O)C(C)C)n1 [NVP-TAE684] (first compound 1 µM, partner dose 0.08 µM)	166%
N#Cc1c(O)c2c(-c3ccc(-c4ccccc4O)cc3)csc2[nH]c1=O + CCN(CC)CCCCNc1ncc2cc(-c3cc(OC)cc(OC)c3)c(NC(=O)NC(C)(C)C)nc2n1 [PD173074] (first compound 2 µM, partner dose 0.1 µM)	75.7%
CN(C)S(=O)(=O)c1ccc2c(c1)/C(=C/c1cc3c([nH]1)CCCC3)C(=O)N2 + COc1ccc2c(c1)CCC1C2CCC2(C)C(NCCCCCCN3C(=O)C=CC3=O)CCC12 [U73122] (first compound 0.4 µM, partner dose 0.4 µM)	92.6%
Oc1cc(-c2nc(-c3ccccc3)[nH]c2-c2ccncc2)ccc1Cl + c1cc(-c2cnn3cc(-c4ccc(OCCN5CCCCC5)cc4)cnc23)ccn1 [Dorsomorphin] (first compound 0.2 µM, partner dose 0.4 µM)	110%
Oc1nc(-c2ccc(C(F)(F)F)cc2)nc2c1CSCC2 + CCCCCCCCCCCC1=C(O)C(=O)C=C(O)C1=O [Embelin] (first compound 2 µM, partner dose 1.2 µM)	80.8%
CN(C)S(=O)(=O)c1ccc2c(c1)/C(=C/c1cc3c([nH]1)CCCC3)C(=O)N2 + CCN(CC)CCCCNc1ncc2cc(-c3cc(OC)cc(OC)c3)c(NC(=O)NC(C)(C)C)nc2n1 [PD173074] (first compound 0.4 µM, partner dose 0.1 µM)	183%
COc1ccc(-c2ccc3c(N4CCOCC4)nc(N4C[C@@H](C)O[C@@H](C)C4)nc3n2)cc1CO + O=c1cc(-c2cccc3c2Sc2ccccc2S3)oc(N2CCOCC2)c1 [KU55933] (first compound 0.02 µM, partner dose 1 µM)	83.5%
NCC(=O)Nc1ccc(-n2nc(C(F)(F)F)cc2-c2ccc3c(ccc4ccccc43)c2)cc1 + Cn1cc(/C=C2\C(=O)Nc3cccnc32)c2ccccc21 [GW441756] (first compound 1 µM, partner dose 0.4 µM)	44.9%
COc1ccc(-c2ccc3c(N4CCOCC4)nc(N4C[C@@H](C)O[C@@H](C)C4)nc3n2)cc1CO + CC(C)CCN1c2nc(Nc3cc(F)c(O)c(F)c3)ncc2N(C)C(=O)C1C [BID1870] (first compound 0.02 µM, partner dose 0.2 µM)	85.9%
CCN(CC)CCCCNc1ncc2cc(-c3cc(OC)cc(OC)c3)c(NC(=O)NC(C)(C)C)nc2n1 + Cc1cc([N+](=O)[O-])ccc1NS(=O)(=O)c1cc(Cl)ccc1Cl [FH535] (first compound 0.1 µM, partner dose 1 µM)	811%
COc1cc2c(Oc3ccc4[nH]c(C)cc4c3F)ncnc2cc1OCCCN1CCCC1 [cediranib] + CCN(CC)CCCCNc1ncc2cc(-c3cc(OC)cc(OC)c3)c(NC(=O)NC(C)(C)C)nc2n1 [PD173074] (first compound 0.4 µM, partner dose 0.1 µM)	79.4%
O=C(O)c1ccc(-c2c[nH]c3ncc(-c4ccccc4)cc23)cc1C1CCCC1 + Cn1cc(/C=C2\C(=O)Nc3cccnc32)c2ccccc21 [GW441756] (first compound 0.16 µM, partner dose 0.4 µM)	65.5%
O=C(O)c1ccc(-c2c[nH]c3ncc(-c4ccccc4)cc23)cc1C1CCCC1 + Oc1nc(-c2ccc(C(F)(F)F)cc2)nc2c1CSCC2 [XAV939] (first compound 0.16 µM, partner dose 2 µM)	27.1%
N#Cc1c(O)c2c(-c3ccc(-c4ccccc4O)cc3)csc2[nH]c1=O + COc1cc(N2CCC(N3CCN(C)CC3)CC2)ccc1Nc1ncc(Cl)c(Nc2ccccc2S(=O)(=O)C(C)C)n1 [NVP-TAE684] (first compound 2 µM, partner dose 0.08 µM)	85.3%
Oc1cc(-c2nc(-c3ccccc3)[nH]c2-c2ccncc2)ccc1Cl + COc1cc(N2CCC(N3CCN(C)CC3)CC2)ccc1Nc1ncc(Cl)c(Nc2ccccc2S(=O)(=O)C(C)C)n1 [NVP-TAE684] (first compound 0.2 µM, partner dose 0.08 µM)	48%
COc1ccc2c(c1)CCC1C2CCC2(C)C(NCCCCCCN3C(=O)C=CC3=O)CCC12 (stereo not given) + Oc1cc(-c2nc(-c3ccccc3)[nH]c2-c2ccncc2)ccc1Cl [L779450] (first compound 0.4 µM, partner dose 0.2 µM)	143%
COc1cc2c(Oc3ccc4[nH]c(C)cc4c3F)ncnc2cc1OCCCN1CCCC1 [cediranib] + Oc1cc(-c2nc(-c3ccccc3)[nH]c2-c2ccncc2)ccc1Cl [L779450] (first compound 0.4 µM, partner dose 0.2 µM)	81.2%
O=S(=O)(c1ccccc1)N(CC(F)(F)F)c1ccc(C(O)(C(F)(F)F)C(F)(F)F)cc1 + Cn1cc(/C=C2\C(=O)Nc3cccnc32)c2ccccc21 [GW441756] (first compound 1.4 µM, partner dose 0.4 µM)	45.5%
N#Cc1c(O)c2c(-c3ccc(-c4ccccc4O)cc3)csc2[nH]c1=O + CC(C)CCN1c2nc(Nc3cc(F)c(O)c(F)c3)ncc2N(C)C(=O)C1C [BID1870] (first compound 2 µM, partner dose 0.2 µM)	46.6%
O=S(=O)(c1ccccc1)N(CC(F)(F)F)c1ccc(C(O)(C(F)(F)F)C(F)(F)F)cc1 + Oc1cc(-c2nc(-c3ccccc3)[nH]c2-c2ccncc2)ccc1Cl [L779450] (first compound 1.4 µM, partner dose 0.2 µM)	97.1%
CN(NC(=O)CC(=O)NN(C)C(=S)c1ccccc1)C(=S)c1ccccc1 + COC(=O)c1sccc1S(=O)(=O)Nc1ccc(Nc2ccccc2)cc1OC [GSK0660] (first compound 0.006 µM, partner dose 1 µM)	80.6%
COc1cc2c(Oc3ccc4[nH]c(C)cc4c3F)ncnc2cc1OCCCN1CCCC1 [cediranib] + O=C(O)C(=O)Nc1sc2c(c1C(=O)O)CCNC2 [TCS401] (first compound 0.4 µM, partner dose 1.66667 µM)	121%
COC(=O)c1sccc1S(=O)(=O)Nc1ccc(Nc2ccccc2)cc1OC + CCCCCCCCCCCC1=C(O)C(=O)C=C(O)C1=O [Embelin] (first compound 1 µM, partner dose 1.2 µM)	77.8%

2 entries from above, with each value named:
N#Cc1c(O)c2c(-c3ccc(-c4ccccc4O)cc3)csc2[nH]c1=O + CCN(CC)CCCCNc1ncc2cc(-c3cc(OC)cc(OC)c3)c(NC(=O)NC(C)(C)C)nc2n1 [PD173074] (first compound 2 µM, partner dose 0.1 µM)
  cleaved PARP positive nuclei fraction: 75.7%
N#Cc1c(O)c2c(-c3ccc(-c4ccccc4O)cc3)csc2[nH]c1=O + COc1cc(N2CCC(N3CCN(C)CC3)CC2)ccc1Nc1ncc(Cl)c(Nc2ccccc2S(=O)(=O)C(C)C)n1 [NVP-TAE684] (first compound 2 µM, partner dose 0.08 µM)
  cleaved PARP positive nuclei fraction: 85.3%
